Measurements reported in PubChem BioAssay AID1259331 (Drosophila RNAi Screening Center, 2017).

Purpose: 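Fly transmembrane-protein genes that affect zinc toxicity in cultured cells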 (primary screen)
Cells: Drosophila S2R+ cells
Knock-down reagent: long dsRNA against Drosophila genes
Time to read-out: 5 days (4 days knock-down, then 1 day zinc)
Treatment: zinc chloride at 15 mM final level for 1 day
Detection: 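Total cellular ATP measured by luciferase luminescence as a viability proxy, turned into Z scores from three plate copies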
Scale: mean Z score: higher = more ATP than other wells, better survival under zinc; ATP luminescence: higher = more ATP, more viable cells
Call rule: 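a reagent is called a hit when its Z score is above 1.5 or below -1.5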
Meaning of the calls: active = hit, ATP up or down; inactive = not a hit
Shown is an unselected part of about 3,100 reagents tested. 126 of them (4.1%) count as active. 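Calls are per reagent; zinc was so toxic that few knock-downs lowered ATP further, so most hits raise ATP.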 Raw values vary from plate to plate and are shown uncorrected. Not given: the amount of reagent.

For CG12446 [SID104200410], the entry reads mean Z score -0.114; ATP luminescence, replicate 1 = 41668; ATP luminescence, replicate 2 = 40673; inactive.
Depletion of NtR [SID104184420] came out at: mean Z score -0.486; ATP luminescence, replicate 1 = 41325; ATP luminescence, replicate 2 = 40142; inactive.
Against NtR [SID104206230] the deposit lists mean Z score -0.855; ATP luminescence, replicate 1 = 40502; ATP luminescence, replicate 2 = 39850; inactive.
Silencing of CG1607 [SID104194922] resulted in: mean Z score -0.316; ATP luminescence, replicate 1 = 40896; ATP luminescence, replicate 2 = 42297; inactive.
Silencing of CG1607 [SID104205554] resulted in: mean Z score 0.227; ATP luminescence, replicate 1 = 65714; ATP luminescence, replicate 2 = 59637; inactive.

Single entries from the entries so far.
For “mean Z score”, NtR [SID104206230] shows -0.855
NtR [SID104184420], mean Z score → -0.486

The results go on:
Knock-down of CG10183 [SID104193995] resulted in: mean Z score 0.499; ATP luminescence, replicate 1 = 40245; ATP luminescence, replicate 2 = 65485; inactive.
Against CG10183 [SID104203889], the entry reads mean Z score 0.27; ATP luminescence, replicate 1 = 55025; ATP luminescence, replicate 2 = 56533; inactive.
Depletion of Nha2 [SID104194481] resulted in: mean Z score 0.275; ATP luminescence, replicate 1 = 34587; ATP luminescence, replicate 2 = 61146; inactive.
Nha2 [SID104195415] showed mean Z score 0.191; ATP luminescence, replicate 1 = 45988; ATP luminescence, replicate 2 = 44325; inactive.
Silencing of CG3690 [SID104197962] gave: mean Z score 0.513; ATP luminescence, replicate 1 = 46897; ATP luminescence, replicate 2 = 50498; inactive.
CG3690 [SID104198433] scored mean Z score -0.372; ATP luminescence, replicate 1 = 57607; ATP luminescence, replicate 2 = 62210; inactive.
Silencing of Rh50 [SID104188484] resulted in: mean Z score -0.394; ATP luminescence, replicate 1 = 28322; ATP luminescence, replicate 2 = 30062; inactive.
